Values from PubChem BioAssay AID1259405 (NCATS, 2018).
This is an unselected part of about 50,000 reagents. About 4,000 of all reagents (8%) were called active. 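Mouse siRNA library applied to hamster cells; one well for each siRNA.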 Reagents against one gene are numbered here.

Screen: 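Silenced genes that increase secreted GFP made by CHO cells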 (primary screen)
Cells: Chinese hamster CHO-K1 ovary cells with stable secreted eGFP expression
Knock-down reagent: single siRNA against mouse genes, 0.8 pmol siRNA per well (2 µl of 400 nM stock)
Timing: 3 days
Detection: 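Per-well intracellular GFP measured by laser scanning cytometry, plus viability from ATP luminescence, each relative to plate median of non-targeting control wells, in %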
Scale: GFP, % of control: higher = more GFP per well, higher productivity; viability (ATP), % of control: higher = more viable cells (more ATP)
Call rule: 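a knock-down is called active if GFP reaches 120% or more of non-targeting control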

The first 5 entries as a preview:
no.	gene	siRNA no.	GFP, % of control	viability (ATP), % of control	outcome
1	Zfp438	1	66.6	74.9	inactive
2	Zfp438	2	74.2	59.7	inactive
3	Vmn1r217	1	56.7	58.3	inactive
4	Vmn1r217	2	80.7	60.3	inactive
5	Vmn1r217	3	89.4	80.4	inactive

The list itself, from the start:
no.	gene	siRNA no.	GFP, % of control	viability (ATP), % of control	outcome
1	Zfp438	1	66.6	74.9	inactive
2	Zfp438	2	74.2	59.7	inactive
3	Vmn1r217	1	56.7	58.3	inactive
4	Vmn1r217	2	80.7	60.3	inactive
5	Vmn1r217	3	89.4	80.4	inactive
6	Or5aq1	1	95	55.1	inactive
7	Or5aq1	2	74	75.1	inactive
8	Or5aq1	3	88.3	74.5	inactive
9	Pigp	1	86.6	76.9	inactive
10	Pigp	2	105	90.2	inactive
11	Pigp	3	88.1	74.1	inactive
12	Cyp4a31	1	122	77.7	active
13	Cyp4a31	2	88.8	72.5	inactive
14	Cyp4a31	3	87.3	101	inactive
15	Ints7	1	86.6	76	inactive
16	Ints7	2	96.6	99.4	inactive
17	Ints7	3	67	63	inactive
18	Asb3	1	68	68.9	inactive
19	Asb3	2	74.4	69.5	inactive
20	Asb3	3	106	93	inactive
21	Kcna4	1	91.4	48.3	inactive
22	Kcna4	2	118	62.8	inactive
23	Kcna4	3	109	68.6	inactive
24	BC028528	1	87.5	61.1	inactive
25	BC028528	2	89.6	94.7	inactive
26	BC028528	3	81.4	96.2	inactive
27	Snx3	1	66.7	78	inactive
28	Snx3	2	140	72	active
29	Snx3	3	95.2	68.5	inactive
30	Otx1	1	104	100	inactive
31	Otx1	2	113	81.8	inactive
32	Ltap1	1	82.9	68.9	inactive
33	Ltap1	2	76.2	87.8	inactive
34	Ltap1	3	84.1	90.1	inactive
35	Dscc1	1	70.1	81.1	inactive
36	Dscc1	2	59.3	51	inactive
37	Dscc1	3	83.7	68.9	inactive
38	Pcdhb11	1	93.7	85.8	inactive
39	Pcdhb11	2	131	95.7	active
40	Pcdhb11	3	82.5	80.6	inactive
41	Polr3a	1	65	83	inactive
42	Polr3a	2	110	62.7	inactive
43	Polr3a	3	76.2	85.6	inactive
44	Nog	1	35.4	37.6	inactive
45	Nog	2	103	86.7	inactive
46	Nog	3	69.9	61.6	inactive
47	Or1e34	1	93.3	61.5	inactive
48	Or1e34	2	73.6	77.6	inactive
49	Or1e34	3	94.4	107	inactive
50	Ranbp9	1	36.3	29.9	inactive
51	Ranbp9	2	71.9	95.6	inactive
52	Ranbp9	3	97.5	114	inactive
53	Kank2	1	166	88	active
54	Kank2	2	65.8	57.7	inactive
55	Kank2	3	79.6	83	inactive
56	Vmn1r231	1	65.9	34.5	inactive
57	Vmn1r231	2	77.3	72.9	inactive
58	Vmn1r231	3	66.9	74.9	inactive
59	Acvr2a	1	85.8	85.7	inactive
60	Mrpl24	1	66.2	47	inactive
61	Mrpl24	2	92.8	45.2	inactive
62	Mrpl24	3	66.5	82.1	inactive
63	Atpaf2	1	67.5	37.1	inactive
64	Atpaf2	2	76.2	91.4	inactive
65	Atpaf2	3	48.4	66.2	inactive
66	Sav1	1	68.7	73.7	inactive
67	Sav1	2	98.3	100	inactive
68	Sav1	3	93.6	130	inactive
69	Abi2	1	115	93.2	inactive
70	Abi2	2	78.2	97.2	inactive
71	Abi2	3	104	95.1	inactive
72	Zfp184	1	56.8	66.5	inactive
73	Zfp184	2	95.5	83.7	inactive
74	Zfp184	3	110	111	inactive
75	Asb17	1	115	73.1	inactive
76	Asb17	2	67.3	61.1	inactive
77	Asb17	3	178	118	active
78	Maob	1	59.6	72.6	inactive
79	Maob	2	61.1	71.6	inactive
80	Maob	3	64.8	53.3	inactive
81	Or4a71	1	99	88.4	inactive
82	Or4a71	2	100	84.3	inactive
83	Or4a71	3	91.3	121	inactive
84	Smarcad1	1	95.4	94.5	inactive
85	Smarcad1	2	48.6	25.4	inactive
86	Smarcad1	3	63.3	70.9	inactive
